Reference: publication doi:10.1101/2025.08.12.669905
Where two headings read alike, the source gives them in different places. No constants are given. Whether binding was seen depends on the method and setting. In cells and extracts the contact can be indirect. Some binding calls cover weakened binding; strength is not graded here. For part of these data: Sequences can lack the tags named with a protein.

Chains of the proteins cited; added tags and fusions are not shown.
UniProt Q15648: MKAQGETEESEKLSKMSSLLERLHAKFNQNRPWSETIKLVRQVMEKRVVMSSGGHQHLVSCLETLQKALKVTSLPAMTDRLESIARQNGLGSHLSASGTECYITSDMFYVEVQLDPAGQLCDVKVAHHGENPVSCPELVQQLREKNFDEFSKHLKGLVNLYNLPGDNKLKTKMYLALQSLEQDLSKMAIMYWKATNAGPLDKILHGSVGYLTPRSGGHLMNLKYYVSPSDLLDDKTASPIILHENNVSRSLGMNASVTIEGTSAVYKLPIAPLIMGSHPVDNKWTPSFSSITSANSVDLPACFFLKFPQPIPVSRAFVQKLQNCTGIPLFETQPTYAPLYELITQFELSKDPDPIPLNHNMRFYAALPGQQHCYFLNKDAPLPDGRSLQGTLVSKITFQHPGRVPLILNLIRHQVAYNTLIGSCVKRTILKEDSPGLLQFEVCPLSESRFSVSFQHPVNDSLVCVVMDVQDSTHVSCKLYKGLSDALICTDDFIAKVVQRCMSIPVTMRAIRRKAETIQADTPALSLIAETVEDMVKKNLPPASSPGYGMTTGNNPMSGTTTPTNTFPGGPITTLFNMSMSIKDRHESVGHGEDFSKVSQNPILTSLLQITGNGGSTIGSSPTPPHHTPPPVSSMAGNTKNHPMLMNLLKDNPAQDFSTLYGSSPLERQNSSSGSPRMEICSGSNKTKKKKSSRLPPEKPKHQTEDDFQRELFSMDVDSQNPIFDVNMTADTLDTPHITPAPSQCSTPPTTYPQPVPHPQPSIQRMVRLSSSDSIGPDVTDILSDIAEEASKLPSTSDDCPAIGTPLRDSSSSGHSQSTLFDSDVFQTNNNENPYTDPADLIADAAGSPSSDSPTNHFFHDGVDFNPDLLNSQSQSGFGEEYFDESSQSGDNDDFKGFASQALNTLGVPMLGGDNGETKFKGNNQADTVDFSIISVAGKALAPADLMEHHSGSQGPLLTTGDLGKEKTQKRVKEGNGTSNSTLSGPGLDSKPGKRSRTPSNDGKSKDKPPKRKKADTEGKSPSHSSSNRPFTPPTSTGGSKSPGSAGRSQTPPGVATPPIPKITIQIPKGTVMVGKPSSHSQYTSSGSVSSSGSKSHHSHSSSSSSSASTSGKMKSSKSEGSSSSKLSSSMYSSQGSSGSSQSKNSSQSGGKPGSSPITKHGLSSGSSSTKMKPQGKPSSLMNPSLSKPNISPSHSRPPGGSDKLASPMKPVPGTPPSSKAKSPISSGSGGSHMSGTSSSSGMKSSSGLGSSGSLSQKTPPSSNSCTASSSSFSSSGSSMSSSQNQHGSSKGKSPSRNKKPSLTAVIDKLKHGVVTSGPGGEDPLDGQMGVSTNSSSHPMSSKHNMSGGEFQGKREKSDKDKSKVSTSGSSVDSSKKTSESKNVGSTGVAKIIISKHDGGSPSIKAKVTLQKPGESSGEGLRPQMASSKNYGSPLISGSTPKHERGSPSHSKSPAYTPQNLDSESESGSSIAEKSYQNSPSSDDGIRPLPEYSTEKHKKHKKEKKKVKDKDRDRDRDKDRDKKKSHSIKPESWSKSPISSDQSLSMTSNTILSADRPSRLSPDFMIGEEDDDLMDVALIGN
UniProt P49336: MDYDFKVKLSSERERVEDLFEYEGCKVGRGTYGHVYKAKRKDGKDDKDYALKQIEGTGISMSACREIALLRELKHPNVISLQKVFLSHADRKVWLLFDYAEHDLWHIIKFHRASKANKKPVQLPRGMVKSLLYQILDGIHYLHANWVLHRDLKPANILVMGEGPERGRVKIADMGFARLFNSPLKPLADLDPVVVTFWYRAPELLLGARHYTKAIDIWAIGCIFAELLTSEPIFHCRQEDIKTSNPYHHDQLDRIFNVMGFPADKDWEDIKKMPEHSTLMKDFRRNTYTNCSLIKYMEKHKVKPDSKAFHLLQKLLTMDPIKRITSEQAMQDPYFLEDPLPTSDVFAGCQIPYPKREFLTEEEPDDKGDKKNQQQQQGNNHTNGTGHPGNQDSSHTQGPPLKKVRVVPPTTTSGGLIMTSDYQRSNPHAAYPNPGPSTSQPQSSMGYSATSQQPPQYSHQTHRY
UniProt Q93074: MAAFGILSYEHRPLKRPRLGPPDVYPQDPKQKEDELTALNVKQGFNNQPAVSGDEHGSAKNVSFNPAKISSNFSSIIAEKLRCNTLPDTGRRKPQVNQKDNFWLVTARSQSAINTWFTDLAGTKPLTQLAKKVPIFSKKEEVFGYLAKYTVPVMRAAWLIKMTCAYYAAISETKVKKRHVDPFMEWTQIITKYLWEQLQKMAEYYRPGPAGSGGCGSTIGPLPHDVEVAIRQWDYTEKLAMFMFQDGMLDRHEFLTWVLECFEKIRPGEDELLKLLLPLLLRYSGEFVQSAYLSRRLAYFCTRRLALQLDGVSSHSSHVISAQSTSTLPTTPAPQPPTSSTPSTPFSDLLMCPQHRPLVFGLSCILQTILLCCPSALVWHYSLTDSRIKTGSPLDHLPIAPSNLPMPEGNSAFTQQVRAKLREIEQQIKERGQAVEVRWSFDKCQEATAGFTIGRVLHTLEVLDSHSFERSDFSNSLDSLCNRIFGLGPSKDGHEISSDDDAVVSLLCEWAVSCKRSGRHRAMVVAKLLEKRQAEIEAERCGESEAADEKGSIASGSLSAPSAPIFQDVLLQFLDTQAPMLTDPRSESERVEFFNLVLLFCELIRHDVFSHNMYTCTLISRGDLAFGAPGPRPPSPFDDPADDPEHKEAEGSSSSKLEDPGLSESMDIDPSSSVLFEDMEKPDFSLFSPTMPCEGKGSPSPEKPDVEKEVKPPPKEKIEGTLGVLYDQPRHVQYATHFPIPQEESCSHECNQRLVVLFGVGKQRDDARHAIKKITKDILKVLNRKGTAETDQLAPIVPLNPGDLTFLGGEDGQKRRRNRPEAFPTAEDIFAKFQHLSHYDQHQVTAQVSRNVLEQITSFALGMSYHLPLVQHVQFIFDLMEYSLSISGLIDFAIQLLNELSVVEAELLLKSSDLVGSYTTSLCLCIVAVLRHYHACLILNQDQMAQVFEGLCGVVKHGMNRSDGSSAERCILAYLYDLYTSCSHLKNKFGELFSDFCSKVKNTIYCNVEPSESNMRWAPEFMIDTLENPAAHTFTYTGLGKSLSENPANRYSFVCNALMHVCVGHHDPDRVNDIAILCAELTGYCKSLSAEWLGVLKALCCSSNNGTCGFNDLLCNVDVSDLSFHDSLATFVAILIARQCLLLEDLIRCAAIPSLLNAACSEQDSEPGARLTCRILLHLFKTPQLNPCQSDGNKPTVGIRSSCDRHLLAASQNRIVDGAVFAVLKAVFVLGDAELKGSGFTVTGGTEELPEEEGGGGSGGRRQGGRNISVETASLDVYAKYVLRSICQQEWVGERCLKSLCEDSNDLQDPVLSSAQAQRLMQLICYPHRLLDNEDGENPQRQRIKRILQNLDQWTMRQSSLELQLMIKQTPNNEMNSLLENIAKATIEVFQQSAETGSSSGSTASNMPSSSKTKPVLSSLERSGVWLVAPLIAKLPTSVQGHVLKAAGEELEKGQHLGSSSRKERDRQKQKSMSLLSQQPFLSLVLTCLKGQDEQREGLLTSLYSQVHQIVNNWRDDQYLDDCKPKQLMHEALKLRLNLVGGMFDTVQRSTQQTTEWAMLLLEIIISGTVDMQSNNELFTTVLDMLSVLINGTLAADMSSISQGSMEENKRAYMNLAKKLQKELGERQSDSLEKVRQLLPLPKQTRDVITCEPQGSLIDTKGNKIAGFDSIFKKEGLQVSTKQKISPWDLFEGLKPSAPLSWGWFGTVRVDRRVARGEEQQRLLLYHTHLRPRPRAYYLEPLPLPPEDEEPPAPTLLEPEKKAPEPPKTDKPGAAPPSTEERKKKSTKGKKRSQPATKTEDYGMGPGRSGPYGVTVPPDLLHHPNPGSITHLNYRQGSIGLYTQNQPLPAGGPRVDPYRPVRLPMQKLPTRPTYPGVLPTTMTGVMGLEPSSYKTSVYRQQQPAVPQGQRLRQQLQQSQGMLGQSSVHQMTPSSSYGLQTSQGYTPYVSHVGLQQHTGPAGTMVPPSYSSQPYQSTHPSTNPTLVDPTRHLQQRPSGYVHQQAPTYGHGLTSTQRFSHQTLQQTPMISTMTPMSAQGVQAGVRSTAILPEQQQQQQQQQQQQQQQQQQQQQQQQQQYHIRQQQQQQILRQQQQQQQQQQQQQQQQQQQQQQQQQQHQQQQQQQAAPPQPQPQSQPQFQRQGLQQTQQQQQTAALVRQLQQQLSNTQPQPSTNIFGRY

Experiments:
Test in all cases: co-IP
[1] = target: MED1 (endogenous) (human (endogenous in 293T and HeLa)) (UniProt Q15648)
[2] = target: MED1 (endogenous) (human (endogenous in 293T and HeLa)) (UniProt Q15648); remark: listed apart in the source
[3] = target: CDK8 (endogenous) (human (endogenous in 293T and HeLa)) (UniProt P49336)
[4] = target: MED12 (endogenous) (human (endogenous in 293T and HeLa)) (UniProt Q93074)
[5] = target: T1, TFCP2 (endogenous) (human (endogenous in HeLa and 293T)) (UniProt Q12800)
T1 sequence: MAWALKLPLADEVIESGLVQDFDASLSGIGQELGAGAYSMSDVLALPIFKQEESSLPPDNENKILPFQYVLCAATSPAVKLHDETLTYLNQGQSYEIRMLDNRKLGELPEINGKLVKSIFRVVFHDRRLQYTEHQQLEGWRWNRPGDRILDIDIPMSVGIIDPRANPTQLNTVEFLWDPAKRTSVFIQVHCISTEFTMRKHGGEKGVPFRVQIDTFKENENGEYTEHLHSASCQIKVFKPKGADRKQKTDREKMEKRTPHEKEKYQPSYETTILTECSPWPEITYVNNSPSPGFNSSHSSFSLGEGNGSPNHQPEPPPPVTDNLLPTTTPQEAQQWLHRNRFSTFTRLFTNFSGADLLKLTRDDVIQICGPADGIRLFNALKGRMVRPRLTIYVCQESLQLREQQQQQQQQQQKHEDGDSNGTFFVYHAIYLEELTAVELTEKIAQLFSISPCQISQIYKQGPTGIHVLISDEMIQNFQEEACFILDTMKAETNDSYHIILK

[6] = target: MED1 (endogenous) (human (endogenous in 293T and HeLa)) (UniProt Q15648); remark: listed apart in the source
[7] = target: CDK8 (endogenous) (human (endogenous in 293T and HeLa)) (UniProt P49336); remark: listed apart in the source
[8] = target: T2, Flag-UBP1, full length (human) (UniProt Q9NZI7)
T2 sequence: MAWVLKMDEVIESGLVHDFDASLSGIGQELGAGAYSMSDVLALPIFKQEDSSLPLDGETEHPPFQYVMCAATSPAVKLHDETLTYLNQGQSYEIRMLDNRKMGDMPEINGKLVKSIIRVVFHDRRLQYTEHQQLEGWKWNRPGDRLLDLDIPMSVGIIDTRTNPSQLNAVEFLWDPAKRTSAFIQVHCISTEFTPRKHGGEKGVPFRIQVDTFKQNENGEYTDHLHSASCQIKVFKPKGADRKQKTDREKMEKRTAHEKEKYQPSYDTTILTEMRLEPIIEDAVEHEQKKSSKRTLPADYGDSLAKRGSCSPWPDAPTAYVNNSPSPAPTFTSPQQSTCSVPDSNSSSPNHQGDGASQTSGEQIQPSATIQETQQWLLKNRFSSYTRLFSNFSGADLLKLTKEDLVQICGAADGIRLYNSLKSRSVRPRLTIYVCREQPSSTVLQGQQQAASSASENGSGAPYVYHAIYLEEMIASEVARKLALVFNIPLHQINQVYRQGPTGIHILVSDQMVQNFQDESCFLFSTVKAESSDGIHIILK

[9] = target: MED12 (endogenous) (human (endogenous in 293T and HeLa)) (UniProt Q93074); remark: listed apart in the source
[10] = target: T1, TFCP2 (endogenous) (human (endogenous in HeLa and 293T)); remark: listed apart in the source
[11] = target: T3, Flag-UBP1 ΔSAM (1-369aa) (human) (UniProt Q9NZI7)
T3 sequence: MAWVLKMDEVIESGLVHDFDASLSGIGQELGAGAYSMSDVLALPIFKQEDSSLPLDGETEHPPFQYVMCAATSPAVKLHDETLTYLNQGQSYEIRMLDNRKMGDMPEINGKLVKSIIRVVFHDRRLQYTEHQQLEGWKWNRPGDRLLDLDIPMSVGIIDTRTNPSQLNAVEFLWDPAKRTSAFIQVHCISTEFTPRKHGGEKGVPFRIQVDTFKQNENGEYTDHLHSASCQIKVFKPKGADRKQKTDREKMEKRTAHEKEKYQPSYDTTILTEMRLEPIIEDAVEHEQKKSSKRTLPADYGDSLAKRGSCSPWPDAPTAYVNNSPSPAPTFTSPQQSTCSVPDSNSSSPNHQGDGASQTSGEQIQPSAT

[12] = target: T4, Mediator subunit MED16 (endogenous) (human (endogenous in 293T and HeLa)) (UniProt Q9Y2X0)
T4 sequence: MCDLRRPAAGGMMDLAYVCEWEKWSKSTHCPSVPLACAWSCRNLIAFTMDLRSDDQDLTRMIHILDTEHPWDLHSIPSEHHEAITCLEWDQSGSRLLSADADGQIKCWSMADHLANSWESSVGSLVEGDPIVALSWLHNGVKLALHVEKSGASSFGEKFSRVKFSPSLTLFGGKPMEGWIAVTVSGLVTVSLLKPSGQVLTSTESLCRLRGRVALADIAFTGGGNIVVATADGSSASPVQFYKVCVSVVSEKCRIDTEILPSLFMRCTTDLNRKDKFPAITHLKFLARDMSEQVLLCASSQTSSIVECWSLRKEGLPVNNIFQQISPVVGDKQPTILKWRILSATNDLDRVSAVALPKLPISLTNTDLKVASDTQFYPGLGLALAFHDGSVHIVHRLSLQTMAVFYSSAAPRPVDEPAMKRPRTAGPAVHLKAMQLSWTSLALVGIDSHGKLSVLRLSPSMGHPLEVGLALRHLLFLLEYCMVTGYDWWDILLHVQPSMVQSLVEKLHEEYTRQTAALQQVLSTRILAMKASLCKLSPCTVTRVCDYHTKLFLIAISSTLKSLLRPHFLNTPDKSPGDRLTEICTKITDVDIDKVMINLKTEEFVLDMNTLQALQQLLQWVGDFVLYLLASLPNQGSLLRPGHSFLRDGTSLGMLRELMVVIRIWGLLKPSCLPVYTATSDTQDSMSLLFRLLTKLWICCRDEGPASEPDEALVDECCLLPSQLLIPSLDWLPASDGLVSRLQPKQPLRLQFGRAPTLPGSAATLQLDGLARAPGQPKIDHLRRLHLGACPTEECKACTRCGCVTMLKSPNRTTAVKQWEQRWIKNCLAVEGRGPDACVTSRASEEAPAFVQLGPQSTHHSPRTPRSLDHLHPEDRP

[13] = target: T4, Mediator subunit MED16 (endogenous) (human (endogenous in 293T and HeLa)); remark: listed apart in the source
[14] = target: T5, Flag-MED16, full length (human) (UniProt Q9Y2X0)
T5 sequence: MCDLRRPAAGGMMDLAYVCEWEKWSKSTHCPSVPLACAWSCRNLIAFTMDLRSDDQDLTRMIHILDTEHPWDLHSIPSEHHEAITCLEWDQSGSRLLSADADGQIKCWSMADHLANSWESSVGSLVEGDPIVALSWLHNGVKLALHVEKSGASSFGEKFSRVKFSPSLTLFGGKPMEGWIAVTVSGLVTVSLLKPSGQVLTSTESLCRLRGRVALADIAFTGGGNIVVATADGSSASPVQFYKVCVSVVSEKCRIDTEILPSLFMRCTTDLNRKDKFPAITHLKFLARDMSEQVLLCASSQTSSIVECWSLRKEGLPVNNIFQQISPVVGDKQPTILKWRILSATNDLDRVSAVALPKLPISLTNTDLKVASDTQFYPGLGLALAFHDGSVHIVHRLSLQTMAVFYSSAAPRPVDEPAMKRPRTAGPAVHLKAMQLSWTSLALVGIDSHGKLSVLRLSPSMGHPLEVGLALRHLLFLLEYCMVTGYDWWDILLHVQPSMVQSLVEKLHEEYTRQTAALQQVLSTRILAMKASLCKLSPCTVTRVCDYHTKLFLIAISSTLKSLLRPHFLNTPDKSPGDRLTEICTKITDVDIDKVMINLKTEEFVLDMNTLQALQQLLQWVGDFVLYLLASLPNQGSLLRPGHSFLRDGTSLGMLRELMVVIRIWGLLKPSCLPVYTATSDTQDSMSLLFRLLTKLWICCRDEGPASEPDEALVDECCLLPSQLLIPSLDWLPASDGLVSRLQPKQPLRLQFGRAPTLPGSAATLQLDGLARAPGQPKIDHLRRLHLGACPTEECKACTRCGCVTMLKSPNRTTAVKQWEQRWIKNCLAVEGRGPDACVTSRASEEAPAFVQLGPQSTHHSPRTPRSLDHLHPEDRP

Measured: binding

B1: Mediator subunit MED16 (endogenous) (protein, UniProt Q9Y2X0 1-877)
chain: MCDLRRPAAGGMMDLAYVCEWEKWSKSTHCPSVPLACAWSCRNLIAFTMDLRSDDQDLTRMIHILDTEHPWDLHSIPSEHHEAITCLEWDQSGSRLLSADADGQIKCWSMADHLANSWESSVGSLVEGDPIVALSWLHNGVKLALHVEKSGASSFGEKFSRVKFSPSLTLFGGKPMEGWIAVTVSGLVTVSLLKPSGQVLTSTESLCRLRGRVALADIAFTGGGNIVVATADGSSASPVQFYKVCVSVVSEKCRIDTEILPSLFMRCTTDLNRKDKFPAITHLKFLARDMSEQVLLCASSQTSSIVECWSLRKEGLPVNNIFQQISPVVGDKQPTILKWRILSATNDLDRVSAVALPKLPISLTNTDLKVASDTQFYPGLGLALAFHDGSVHIVHRLSLQTMAVFYSSAAPRPVDEPAMKRPRTAGPAVHLKAMQLSWTSLALVGIDSHGKLSVLRLSPSMGHPLEVGLALRHLLFLLEYCMVTGYDWWDILLHVQPSMVQSLVEKLHEEYTRQTAALQQVLSTRILAMKASLCKLSPCTVTRVCDYHTKLFLIAISSTLKSLLRPHFLNTPDKSPGDRLTEICTKITDVDIDKVMINLKTEEFVLDMNTLQALQQLLQWVGDFVLYLLASLPNQGSLLRPGHSFLRDGTSLGMLRELMVVIRIWGLLKPSCLPVYTATSDTQDSMSLLFRLLTKLWICCRDEGPASEPDEALVDECCLLPSQLLIPSLDWLPASDGLVSRLQPKQPLRLQFGRAPTLPGSAATLQLDGLARAPGQPKIDHLRRLHLGACPTEECKACTRCGCVTMLKSPNRTTAVKQWEQRWIKNCLAVEGRGPDACVTSRASEEAPAFVQLGPQSTHHSPRTPRSLDHLHPEDRP
not listed: [12] | [13] | [14]
binds: all other assays above

B2: TFCP2 (endogenous) (protein, UniProt Q12800 1-502)
chain: MAWALKLPLADEVIESGLVQDFDASLSGIGQELGAGAYSMSDVLALPIFKQEESSLPPDNENKILPFQYVLCAATSPAVKLHDETLTYLNQGQSYEIRMLDNRKLGELPEINGKLVKSIFRVVFHDRRLQYTEHQQLEGWRWNRPGDRILDIDIPMSVGIIDPRANPTQLNTVEFLWDPAKRTSVFIQVHCISTEFTMRKHGGEKGVPFRVQIDTFKENENGEYTEHLHSASCQIKVFKPKGADRKQKTDREKMEKRTPHEKEKYQPSYETTILTECSPWPEITYVNNSPSPGFNSSHSSFSLGEGNGSPNHQPEPPPPVTDNLLPTTTPQEAQQWLHRNRFSTFTRLFTNFSGADLLKLTRDDVIQICGPADGIRLFNALKGRMVRPRLTIYVCQESLQLREQQQQQQQQQQKHEDGDSNGTFFVYHAIYLEELTAVELTEKIAQLFSISPCQISQIYKQGPTGIHVLISDEMIQNFQEEACFILDTMKAETNDSYHIILK
binds: [12] | [13] | [8] | [14]
